Results are given in words; binding and its absence hold for the method and conditions named. In cells and extracts the contact can be indirect. A result given as binding can be weak or reduced; the word gives no strength.
Target: FLAG-TRIM28 (UniProt Q13263)
Assay: co-IP; anti-FLAG agarose IP from lysates of HeLa cells co-transfected with EGFP-SIRT1 forms and FLAG-TRIM28 for 24 h; western blot

Amino acid sequences for entries named in this document (tags omitted). A change or cut given only in a name is not applied to a line headed by its entry.
UniProt Q13263: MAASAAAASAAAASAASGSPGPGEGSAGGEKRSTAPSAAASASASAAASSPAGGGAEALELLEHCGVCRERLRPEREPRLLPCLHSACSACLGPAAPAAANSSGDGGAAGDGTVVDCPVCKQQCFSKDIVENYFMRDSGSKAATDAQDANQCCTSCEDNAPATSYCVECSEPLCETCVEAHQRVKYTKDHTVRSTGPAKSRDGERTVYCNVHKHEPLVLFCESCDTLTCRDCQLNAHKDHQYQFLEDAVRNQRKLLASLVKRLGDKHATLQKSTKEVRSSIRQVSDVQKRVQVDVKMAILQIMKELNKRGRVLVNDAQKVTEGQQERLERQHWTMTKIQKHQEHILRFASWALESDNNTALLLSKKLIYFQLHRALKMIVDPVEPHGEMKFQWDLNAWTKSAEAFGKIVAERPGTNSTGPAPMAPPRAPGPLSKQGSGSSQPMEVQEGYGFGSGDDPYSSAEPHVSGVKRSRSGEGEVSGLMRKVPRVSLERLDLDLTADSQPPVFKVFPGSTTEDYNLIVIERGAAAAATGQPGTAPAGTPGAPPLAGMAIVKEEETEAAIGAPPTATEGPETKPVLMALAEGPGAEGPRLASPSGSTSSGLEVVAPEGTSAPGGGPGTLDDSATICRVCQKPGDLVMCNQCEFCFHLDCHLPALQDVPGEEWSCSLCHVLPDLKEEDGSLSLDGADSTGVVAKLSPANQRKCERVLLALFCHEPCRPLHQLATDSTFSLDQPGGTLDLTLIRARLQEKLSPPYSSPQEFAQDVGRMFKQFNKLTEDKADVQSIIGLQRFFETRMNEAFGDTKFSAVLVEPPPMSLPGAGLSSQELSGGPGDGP
UniProt Q96EB6: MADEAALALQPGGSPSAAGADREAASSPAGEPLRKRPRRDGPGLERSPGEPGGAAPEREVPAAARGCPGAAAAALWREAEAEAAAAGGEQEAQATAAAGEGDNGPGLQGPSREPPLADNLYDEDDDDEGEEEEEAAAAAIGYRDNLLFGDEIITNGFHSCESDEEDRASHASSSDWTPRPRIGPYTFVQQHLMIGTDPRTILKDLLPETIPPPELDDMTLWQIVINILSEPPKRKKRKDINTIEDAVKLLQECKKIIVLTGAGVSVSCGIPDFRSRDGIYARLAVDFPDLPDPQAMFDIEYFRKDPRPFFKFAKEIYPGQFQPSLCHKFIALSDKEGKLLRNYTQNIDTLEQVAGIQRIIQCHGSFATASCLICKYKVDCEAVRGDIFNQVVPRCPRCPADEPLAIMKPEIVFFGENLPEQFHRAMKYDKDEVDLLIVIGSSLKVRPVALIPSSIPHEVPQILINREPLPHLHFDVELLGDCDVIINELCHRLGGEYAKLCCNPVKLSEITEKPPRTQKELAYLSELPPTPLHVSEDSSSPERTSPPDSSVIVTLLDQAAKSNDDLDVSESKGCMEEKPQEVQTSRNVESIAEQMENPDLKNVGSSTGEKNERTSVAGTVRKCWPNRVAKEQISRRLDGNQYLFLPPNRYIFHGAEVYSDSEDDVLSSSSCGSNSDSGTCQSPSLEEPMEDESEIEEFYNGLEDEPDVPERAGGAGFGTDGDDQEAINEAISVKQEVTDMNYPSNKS

In the case of “EGFP-SIRT1^ΔC703 (from UniProt Q96EB6) (domain or fragment)”, the binding is reported as “binds”.

Reference: publication PMC9066097
